{
  "source": "patent US20090105632A1",
  "about": "(priority 2007, published 2009)",
  "origin": "cited, not measured here",
  "test_system": "Parkinson's disease",
  "conditions": "coadministration with levodopa",
  "data": [
    {"smiles": "CCN(CC)C(=O)N[C@H]1C=C2c3cccc4[nH]cc(c34)C[C@H]2N(C)C1", "note": "[lisuride, N′-[(8α)-9,10-didehydro-6-methylergolin-8-yl]-N,N-diethylurea]", "values": [
      {"measurement": "reduction of levodopa dosage with the administration of lisuride", "result": 25, "unit": "%"}
    ]}
  ]
}
